This passage reports binding results from publication PMC2994555.

Chains of the proteins cited; added tags and fusions are not shown. Residues count along the entry.
UniProt Q92673, residues 82-2214: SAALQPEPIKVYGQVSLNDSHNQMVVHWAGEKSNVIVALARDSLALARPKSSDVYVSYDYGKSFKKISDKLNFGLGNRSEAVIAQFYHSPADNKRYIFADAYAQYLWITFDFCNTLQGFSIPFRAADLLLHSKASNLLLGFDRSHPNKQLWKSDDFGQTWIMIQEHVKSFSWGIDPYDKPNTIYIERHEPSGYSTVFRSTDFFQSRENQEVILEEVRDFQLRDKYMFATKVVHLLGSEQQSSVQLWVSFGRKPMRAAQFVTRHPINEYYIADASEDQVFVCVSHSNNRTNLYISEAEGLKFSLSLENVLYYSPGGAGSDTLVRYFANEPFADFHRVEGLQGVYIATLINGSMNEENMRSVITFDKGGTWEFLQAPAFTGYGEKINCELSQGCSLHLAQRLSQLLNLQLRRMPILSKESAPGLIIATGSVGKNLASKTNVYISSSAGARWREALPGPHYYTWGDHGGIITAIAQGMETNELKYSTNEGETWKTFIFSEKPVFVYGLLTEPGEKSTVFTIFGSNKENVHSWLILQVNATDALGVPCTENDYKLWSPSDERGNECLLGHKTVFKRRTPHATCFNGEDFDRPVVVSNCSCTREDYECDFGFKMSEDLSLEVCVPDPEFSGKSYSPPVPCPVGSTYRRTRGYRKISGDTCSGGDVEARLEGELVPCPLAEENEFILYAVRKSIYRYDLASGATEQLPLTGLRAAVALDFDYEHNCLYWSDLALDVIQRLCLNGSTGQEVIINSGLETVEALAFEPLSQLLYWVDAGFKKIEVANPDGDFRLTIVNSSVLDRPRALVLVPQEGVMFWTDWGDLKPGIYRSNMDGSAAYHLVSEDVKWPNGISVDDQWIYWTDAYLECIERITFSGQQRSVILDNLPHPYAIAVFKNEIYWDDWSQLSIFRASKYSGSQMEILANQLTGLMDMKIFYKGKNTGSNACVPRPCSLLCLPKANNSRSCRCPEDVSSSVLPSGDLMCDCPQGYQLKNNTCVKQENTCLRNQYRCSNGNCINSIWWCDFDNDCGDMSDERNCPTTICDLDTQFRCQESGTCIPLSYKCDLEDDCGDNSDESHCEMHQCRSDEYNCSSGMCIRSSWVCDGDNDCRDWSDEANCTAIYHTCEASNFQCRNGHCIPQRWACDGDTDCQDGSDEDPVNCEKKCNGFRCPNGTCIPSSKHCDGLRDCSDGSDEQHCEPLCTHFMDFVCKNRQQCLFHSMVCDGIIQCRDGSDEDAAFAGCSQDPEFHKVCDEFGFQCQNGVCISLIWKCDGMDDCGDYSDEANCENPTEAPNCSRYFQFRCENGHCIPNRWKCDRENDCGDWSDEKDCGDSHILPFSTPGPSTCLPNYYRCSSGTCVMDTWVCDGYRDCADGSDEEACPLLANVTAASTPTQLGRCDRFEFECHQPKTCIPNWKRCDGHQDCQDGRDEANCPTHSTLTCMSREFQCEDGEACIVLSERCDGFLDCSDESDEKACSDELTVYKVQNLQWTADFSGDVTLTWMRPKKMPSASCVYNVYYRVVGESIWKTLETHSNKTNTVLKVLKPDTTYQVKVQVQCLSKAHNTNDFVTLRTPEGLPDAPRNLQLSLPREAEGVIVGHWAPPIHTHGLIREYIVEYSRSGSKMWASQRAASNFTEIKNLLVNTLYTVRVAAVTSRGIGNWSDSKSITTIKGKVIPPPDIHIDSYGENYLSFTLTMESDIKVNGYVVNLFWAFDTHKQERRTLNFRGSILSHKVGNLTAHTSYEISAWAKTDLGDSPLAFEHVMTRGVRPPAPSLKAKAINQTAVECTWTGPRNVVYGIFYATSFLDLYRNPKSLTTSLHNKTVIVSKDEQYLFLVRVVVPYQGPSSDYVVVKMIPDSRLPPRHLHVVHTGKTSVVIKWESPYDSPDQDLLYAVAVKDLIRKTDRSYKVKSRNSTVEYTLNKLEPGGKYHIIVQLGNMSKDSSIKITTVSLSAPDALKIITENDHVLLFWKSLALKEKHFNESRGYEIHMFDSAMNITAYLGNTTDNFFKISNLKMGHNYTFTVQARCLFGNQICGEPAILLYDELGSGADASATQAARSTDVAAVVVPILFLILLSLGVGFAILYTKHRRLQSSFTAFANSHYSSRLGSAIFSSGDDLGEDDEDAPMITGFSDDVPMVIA

Assay [1] deals with SorLA expressed in HEK293T cells (UniProt Q92673). Description: co-IP; HEK293T cotransfected with SorLA, APP695 and eGFP, 48 h; lysate (50 mM TrisHCl pH 7.5, 100 mM NaCl, 1 mM EDTA, 1% Nonidet P-40); IP with anti-APP C-terminus 369 or anti-SorLA N-terminus, pre-immune serum as control; blots with 369, anti-SorLA C-terminus and anti-GFP.
For assay [2], the target named is APP695 expressed in HEK293T cells (human) (UniProt P05067). The assay is described as above.

These are yes or no findings as the source states them, for the method shown. Binding seen in cells or lysates may run through a third protein. Some entries that bind do so weakly or less than the wild type.

Take “APP695 expressed in HEK293T cells (from UniProt P05067-4 18-695)”: the binding entry in assay [1] is reported as “binds”.

Turning to “SorLA expressed in HEK293T cells (from UniProt Q92673 82-2214) (receptor)”, the binding result in assay [2] is “binds”.
